Common to all, as to assay type: cell-based
Experiment [1] deals with 3T3 mouse fibroblasts. The experiment in a line: Cytotoxicity on 3T3 cells (MTT). Here is the method: The toxicity of the prepared FQ–OSILs and corresponding starting materials, namely, starting fluoroquinolones and halide salts, on 3T3 mouse fibroblasts was determined. Figure 4 plots the relative 3T3 cell viability in the presence of the starting materials and the FQ–OSILs at 10 µM.
0.54 ± 0.02 [Error! Bookmark not 0.84 ± 0.02 [Error! Bookmark not
Norfloxacin defined.] defined.]
(0.37 ± 0.02) [Error! Bookmark not (0.85 ± 0.04) [Error! Bookmark not […]
Critical micelle concentration
The critical micelle concentrations of the organic salts based on fluoroquinolones with cations bearing surfactant properties were calculated using ionic conductivity measurements. […] The cell temperature was measured by means of a PT100 platinum resistance sensor coupled to a Keithly 199 System […]
The probe was previously calibrated against high accuracy mercury thermometers at different temperatures. […] After each addition, the mixture was stirred to obtain a homogeneous solution, and the ionic conductivity was measured. […]
For subculture, 3T3 cells were dissociated using trypsin-EDTA (Sigma, USA), splitted 1:5 ratio, and seeded into Petri dishes with 25 cm2 of growth area. […] Cytotoxicity was evaluated on 3T3 cells' viability after cells reached total confluence. […]

For experiment [2], the system named is Staphylococcus aureus (ATCC 25923). The experiment can be described thus: Antimicrobial activity (growth, OD 600 nm).
The subject of experiment [3] is Klebsiella pneumoniae (ATCC 11296). The experiment in a line: Antimicrobial activity (growth, OD 600 nm). The following applies: for IC50: Klebsiella pneumoniae.
Experiment [4] relates to Bacillus subtilis (ATCC 6633). The experiment can be described thus: Antimicrobial activity (growth, OD 600 nm).

The structures appear in SMILES notation. Where two headings read alike, the source gives them in different places.

One may read the IC50 as the concentration at which inhibition is half-maximal. `CCCCCCCCCCCCCCCC[n+]1ccccc1.[Cl-]` [[C16Py]Cl, reference compound]: the IC50 was 5.46 µM in experiment [1] (NIH3T3); 5.46 µM in experiment [1] (NIH3T3, 24 h); 3.25 µM in experiment [2] (Staphylococcus aureus, ATCC25923, read-out: IC50 S. aureus); 2.33 µM in experiment [3] (ATCC11296, read-out: IC50 K. pneumoniae, 0.001–10 µM); 2.55 µM in experiment [3] (ATCC11296, read-out: IC50 K. pneumoniae, see Table S2); 2.55 µM in experiment [4] (Bacillus subtilis, ATCC6633, read-out: IC50 B. subtilis). Besides, the “growth inhibition S. aureus” value in experiment [2] (10 µM, 6 h) is “effective antimicrobial effect”. Also, in experiment [3] (10 µM, 6 h), the “growth inhibition K. pneumoniae” value is “effective antimicrobial effect”. For the same compound, in experiment [4] (10 µM, 6 h), the “growth inhibition B. subtilis” value is “effective antimicrobial effect”.

Values taken from article PMC7464485, “Antimicrobial Activities of Highly Bioavailable Organic Salts and Ionic Liquids from Fluoroquinolones” (Pharmaceutics, 2020).
